Measurements published in patent US20260224761A1, “DUAL LABELLED COMPOUNDS TARGETING THE PROSTATE SPECIFIC MEMBRANE ANTIGEN” (priority 2023, published 2026).
At least one peptide structure holds a part that was inferred or is arguable (an end, a ring closure or a residue).

How the values were obtained:
[1] = Photophysical characterization (molar extinction coefficient, quantum yield, brightness) in human serum albumin solution; assay type: physicochemical
Method: Quantum yield, molar extinction coefficient and serum protein binding experiments were performed according to previously published procedures (Hensbergen A. W. et al., Dyes and Pigments, 2018, 152, 19-28).
Table 1 summarizes the photophysical properties of [^99mTc]PSMA-HSG, [^99mTc]mas3-Cy5(SO3)—EuK and [^99mTc]mas3-(SO3)Cy5(SO3)—EuK and of the different sulfonated Cy5-dyes used for their preparation. […] Because of this latter effect we analyzed the brightness (as multiplication of the molar extinction coefficient and the quantum yield) in humans serum albumin for all three hybrid PSMA agents included in this study (see Table 1). While we indeed see that increasing of the number of sulfonates on the cyanine dye has a positive effect on the brightness all remain within the same order of magnitude.
Because of this latter effect, we analyzed the brightness (as multiplication of the molar extinction coefficient and the quantum yield) in human serum albumin solution for all three hybrid PSMA agents included in this study (see Table 1). While we indeed see that increasing of the number of sulfonates on the cyanine dye has a positive effect on the brightness, all remain within the same order of magnitude.

[2] = test system: PC3-Pip xenografts in NSG mice; assay: In vivo and ex vivo fluorescence imaging of PC3-Pip xenografts in NSG mice; settings: 6 h p.i.; 0.1 nmol ligand
Method: FIG. 3: In vivo (A) and ex vivo (B) fluorescence imaging of PC3-Pip xenografts in NSG mice using PSMA-HSG (upper two rows), the reference Ac-mas3-Cy5(SO3)—EuK (middle two rows) and Ac-mas3-(SO3)Cy5(SO3)—EuK (lower two rows). Conditions were 2 h p.i. using a peptide dose of 1 nmol/mouse and 6 h p.i. using a peptide dose of 0.1 nmol/mouse, respectively (n=1 per condition). In vivo and ex vivo fluorescence imaging of intact tumors was performed using a clinical-grade fluorescence KARL STORZ Endoscope; fluorescence confocal imaging of 2 mm tumor slices (right) was performed using a Leica SP8 WLL microscope.
In vivo fluorescence imaging of PC3-Pip xenografts in NSG mice (2 h p.i. at a ligand dose of 1 nmol and 6 h p.i. at a ligand dose of 0.1 nmol, respectively; n=1 per compound and condition) was performed using a clinical-grade fluorescence laparoscopy set-up (KARL STORZ Endoskope GMBh & Co. KG). […] Images were recorded using integrated KARL STORZ software and image processing was performed using in-house developed MATLAB software that provided a signal intensity-based representation of the signal-to-background ratio (SBR; Azargoshasb S. et al., Mol. Imaging Biol., 2022, https://doi.org/10.1007/s11307-022-01736-y; de Barros H. A. et al., Eur. Urol., 2022, 82, 97-105). […]

CC(=O)SCC(=O)N[C@H](CO)C(=O)N[C@H](CO)C(=O)N[C@H](CO)C(=O)N[C@H](CCCCNC(=O)CCCCCN1\C(=C/C=C/C=C/C2=[N+](C)c3ccc(S(=O)(=O)O)cc3C2(C)C)C(C)(C)c2cc(S(=O)(=O)O)ccc21)C(=O)N[C@H](Cc1ccc(O)cc1)C(=O)N[C@H](Cc1ccc2ccccc2c1)C(=O)N[C@H](CCCCNC(=O)CCCCCCC(=O)NCCCC[C@H](NC(=O)N[C@@H](CCC(=O)O)C(=O)O)C(=O)O)C(=O)O [PSMA-HSG, Ac-mas3-k(Sulfo-Cy5)-γ-nal-k-Sub-EuK]
Quantum yield (HSA) [1]: 26%
Molar extinction coefficient free dye (HSA) ([1]; free dye): 161.600 L/mol/cm
Brightness (HSA) ([1]; multiplication of molar extinction coefficient and quantum yield): 42.020 L/mol/cm
detectable fluorescence signal [2]: weak
